This assay concerns gastric secretion. Kind of assay: Influence to the gastric secretion (pylorus ligation). The assay is classed as in vivo, Male Sprague-Dawley strain rats. The conditions noted are these: 12.5 mg/kg i.p. On the procedure: Male Sprague-Dawley strain rats, weighing 160-180 g were deprived of food but allowed free access to water for 20 hours prior to experiment. […] The test drug was given intraperitoneally immediately after pylorus ligation. The rats were sacrificed 3, 6 and 12 hours later and the stomachs removed. The gastric juice was collected and analyzed for volume. Then the gastric juice was centrifuged at 1300 g for 10 minutes at room temperature to give the supernatant. The total acidity and peptic activity of the supernatant were determined. Total acidity was determined by titrating with 0.01 N NaOH. […] Total acidity is shown as the titration volume (ml) and peptic activity is shown as the corresponding weight (mg) to crystal pepsin.

Where a name gives a salt, the structure may show the parent alone.

In the case of `CN1[C@@H]2CC[C@H]1C[C@@H](OC(=O)C(CO)c1ccccc1)C2` (some centres unmarked) [Compound B, atropine sulfate, reference compound], the “Titratable Acid Output” value runs as follows: (3 hours) 17.7 ± 7.7 μEg; (6 hours) 171.6 ± 50.0 μEq; (12 hours) 617.1 ± 48.0 μEq. For the same compound, the “Titratable Acid Output % change” value is 78.6% (3 hours) and 55.1% (6 hours).

For the origin of these results see US4348410A, “Cyclohexane carboxylic acid derivatives” (Nippon Chemiphar Co., Ltd., priority 1979, dated 1982).
